Assay results published in article PMC10948934.
Results are given in words; binding and its absence hold for the method and conditions named. In cells and extracts the contact can be indirect. Binding calls can cover weak binding; strength is not graded here.

Protein sequences, listed by entry. Tags and fused reporters are not part of them. Lines headed by an entry give the natural chain unless they say otherwise; changes in a name come on top.
UniProt Q9W0K9: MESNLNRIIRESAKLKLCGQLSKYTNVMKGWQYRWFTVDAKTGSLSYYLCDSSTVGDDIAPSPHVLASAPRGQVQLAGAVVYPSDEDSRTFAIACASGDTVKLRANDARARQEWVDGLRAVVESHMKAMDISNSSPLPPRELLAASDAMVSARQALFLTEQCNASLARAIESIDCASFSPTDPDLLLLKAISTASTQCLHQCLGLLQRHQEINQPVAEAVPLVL

Target: T1, dVAP-A (Drosophila melanogaster (endogenous in fly heads)) (UniProt Q9W4N8)
T1 sequence: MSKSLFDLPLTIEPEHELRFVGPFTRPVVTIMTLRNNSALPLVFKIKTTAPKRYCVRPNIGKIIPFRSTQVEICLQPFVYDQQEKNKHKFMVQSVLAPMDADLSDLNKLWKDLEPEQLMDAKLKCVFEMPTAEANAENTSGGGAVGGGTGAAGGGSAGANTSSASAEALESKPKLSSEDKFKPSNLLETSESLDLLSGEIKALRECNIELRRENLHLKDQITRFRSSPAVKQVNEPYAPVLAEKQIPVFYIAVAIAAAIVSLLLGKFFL
Assay: co-IP; fly head lysates (UAS constructs under GMR promoter); dVAP-A antibody or control IgG overnight at 4°C, protein G Sepharose; Western blot

- binding: binds
Substance: 3HA::CG9205 (from UniProt Q9W0K9)
